Patent US11685741B2, “Fluorescent probes” (University of Massachusetts, priority 2017, dated 2023)
Entries after “also recorded” stand apart in the source; their conditions may differ.

Tested on: Bovine aortic endothelial cells (BAEC)
Experiment: Confocal imaging of Fe2+ in BAEC cells
Type: cell-based
Settings: MitoTracker and LysoTracker
Experimental: Bovine aortic endothelial cells BAEC cells, at an approximately density of 1.3 million/ml in complete EBM medium, were incubated with 100 μM ferrous ammonium sulfate (FAS, Fe (NH4)2(SO4)2 from a 10 mM stock solution) for overnight at 37° C. in a humid atmosphere of 5% CO2 and then the cells were washed with fresh EBM medium to remove excess Fe^2+. Then cells were incubated with Rh101D (10 μM, from 500 μM stock solution in DMF) at 37° C. for 30 min and then cells were washed with EBM media and then imaged. In addition, some cells were treated firstly with 100 μM Fe^2+ overnight and then the cells were washed with fresh EBM medium. For chelation experiments, Fe^2+-loaded cells or untreated cells were incubated with 1 mM 2,2′-bipyridyl (Bpy) at 37° C. for 30 min, then sensor was added followed by washing with the media, and then imaging was done. Controls were imaged without incubation with Fe^2+ or 2,2′-bipyridyl. HCT-116, a human colon adenocarcinoma cell line were used for concentration determination of Fe^2+ with the help of the ratiometric sensor Rh101D. HCT-116 were maintained in McCoy's 5A medium supplemented with 10% fetal bouvine serum and 5% antibiotic antimycotic in a 5% CO2 atmosphere at 37° C. Cultures were divided 1:2 every 48 h to an approximate cell density of 1.21 million cells/ml and used for experiments after 24 h. […]

Row | SMILES | subcellular location of exchangeable Fe^2+ pools detected
1 | CCN(CC)c1ccc2c(c1)OC1=C(CCC/C1=C\C=C1\N(C)c3ccccc3C1(C)C)C21c2ccccc2C(=O)N1/N=C\C=C\c1ccc(N(C)C)cc1 (centres unmarked) [NIRh-Fret, (E)-6′-(diethylamino)-2-(((1Z,2E)-3-(4-(dimethylamino)phenyl)allylidene)amino)-4′-(2-((E)-1,3,3-trimethylindolin-2-ylidene)ethylidene)-1′,2′,3′,4′-tetrahydrospiro[isoindoline-1,9′-xanthen]-3-one] | mitochondria and endosomes/lysosomes
2 | CN(C)c1ccc(/C=C/C=N/N2C(=O)c3ccccc3C23c2cc4c5c(c2Oc2c3cc3c6c2CCCN6CCC3)CCCN5CCC4)cc1 [Rh101D] | mitochondria and lysosomes; also recorded: mitochondria and endosomes/lysosomes, not in the cytosol
